Counter-ions that a name gives are not always drawn. Like-named read-outs stand apart in the source and are kept apart here. Screen size: about 3,300 compounds; about 60 (2%) showed an effect of 50% or more. The list shows a part of the results.
Test system: HCoV-OC43
Set-up: species or system RD; HTS, protection from HCoV-OC43 induced cell death, luminescent cell viability (CellCounting-Lite 2.0), inhibition rate
Conditions: 24 h post infection, 1 h compound pre-incubation, 10 µM, inhibitor

Structure (SMILES)	OC43 Inhibition rate [%]	OC43 Inhibition rate (OC43 Inhibition rate, 24 h) [%]
O=c1cc[nH]c(=O)[nH]1 [Uracil]	-0.3	
O=C(O)[C@H]1O[C@@H](Oc2cc(O)c3c(=O)cc(-c4ccc(O)cc4)oc3c2)[C@H](O)[C@@H](O)[C@@H]1O [Apigenin-7-glucuronide]	0.4	
O=C(O)c1c(O)cccc1O [2,6-Dihydroxybenzoic acid]	3.5	
COc1cc2c(c(OC)c1OC)-c1c(cc(OC)c(OC)c1OC)C[C@](C)(O)[C@@H](C)C2 [Schisandrin]	-0.2	
CS(C)(=O)=O [Dimethyl sulfone]	3.1	
Oc1cc(O)c2c(c1)O[C@H](c1ccc(O)c(O)c1)[C@@H](O)C2 [Catechin]		-0.5
C=C[C@]12CN(C)[C@@H]3[C@H]4CO[C@H](C[C@H]41)[C@]1(C(=O)N(OC)c4ccccc41)[C@@H]32 [Gelsevirine]	-1	
O=C1Nc2ccccc2C1=O [Isatin]	-0.4	
COc1ccc(-c2cc(=O)c3c(OC)c(OC)c(OC)c(OC)c3o2)cc1 [Tangeretin]	27.2	
C[C@H](O)C(=O)N[C@@H](Cc1ccccc1)C(=O)O [N-Lactoyl-Phenylalanine]	-1.3	
C[C@H](CC[C@@H](O)C(C)(C)O)[C@H]1CC[C@@]2(C)[C@@H]3CC=C4[C@@H](CC[C@H](O)C4(C)C)[C@]3(C)C(=O)C[C@]12C [Bryodulcosigenin]	13.2	
N[C@@H](Cc1cc(I)c(O)c(I)c1)C(=O)O [(S)-2-Amino-3-(4-hydroxy-3,5-diiodophenyl)propanoic acid dihydrate]	0.8	
CN1C(C(=O)Nc2ccccn2)=C(O)c2sc(Cl)cc2S1(=O)=O [Lornoxicam]	5.4	
COc1ccc2c3c1O[C@H]1C[C@@H](O)C=C[C@@]31CCN(C)C2 [Galanthamine]		-0.2
OC[C@H]1O[C@@H](Oc2cc(O)cc(/C=C/c3ccc(O[C@@H]4O[C@H](CO)[C@@H](O)[C@H](O)[C@H]4O)cc3O)c2)[C@H](O)[C@@H](O)[C@@H]1O [Mulberroside A]	0.3	
OC1OC[C@@H](O)[C@@H](O)[C@@H]1O (stereo partly drawn) [D-arabinose]		3.8
O=C1C=CC[C@@H]2[C@H]3CCCN4CCC[C@@H](CN12)[C@@H]34 [Sophocarpine]		-0.5
COc1cc(OC)c2c(=O)cc(-c3ccc(O)c(O)c3)oc2c1 [5,7-Dimethoxyluteolin]	-0.8	
NCCc1c[nH]cn1 [Histamine]		0.9
CC1(C)CC[C@]2(C(=O)O)CC[C@]3(C)C(=CC[C@@H]4[C@@]5(C)CC[C@H](O[C@@H]6O[C@H](C(=O)O)[C@@H](O)[C@H](O)[C@H]6O[C@@H]6O[C@H](CO)[C@@H](O)[C@H](O)[C@H]6O)C(C)(C)[C@@H]5CC[C@]43C)[C@@H]2C1 [Zingibroside R1]	-1.5	
O=C(O)c1cccnc1 [Niacin]	-0.3	
CC[C@H]1OC(=O)C[C@@H](O)[C@H](C)[C@@H](O[C@@H]2O[C@H](C)[C@@H](O[C@H]3C[C@@](C)(O)[C@@H](O)[C@H](C)O3)[C@H](N(C)C)[C@H]2O)[C@@H](CC=O)C[C@@H](C)C(=O)/C=C/C(C)=C/[C@@H]1CO[C@@H]1O[C@H](C)[C@@H](O)[C@@H](OC)[C@H]1OC [Tylosin (phosphate)]		16.6
O=C(O)c1cc(O)c2c(c1)C(=O)c1cccc(O[C@@H]3O[C@H](CO)[C@@H](O)[C@H](O)[C@H]3O)c1C2=O [Rhein 8-Glucoside]	1.1	
CC(=O)O[C@@H]1C[C@H](O)[C@@]23CO[C@@H](O)[C@]1(C)[C@@H]2C[C@@H](O)[C@]1(C)[C@@H]3C(=O)[C@H](OC(C)=O)[C@@]2(C)[C@H](c3ccoc3)C[C@H]3O[C@]321 [Toosendanin]	-0.8	
C[C@H](CO[C@@H]1O[C@H](CO)[C@@H](O)[C@H](O)[C@H]1O)[C@H]1CC[C@@]2(CC[C@]3(C)[C@H](CC[C@@H]4[C@@]5(C)CC[C@H](O[C@@H]6O[C@H](CO)[C@@H](O)[C@H](O)[C@H]6O[C@@H]6O[C@H](CO)[C@@H](O)[C@H](O)[C@H]6O)[C@@](C)(CO)[C@@H]5CC[C@]43C)[C@H]2O)CO1 [Hosenkoside B]	7.2	
CC1(C)CCC2(CO)C(=C3C=CC4C5(C)CCC(OC6OC(COC7OC(CO)C(O)C(O)C7O)C(OC7OC(CO)C(O)C(O)C7O)C(O)C6O)CC5C(C)(CO)CC4(C)C3(C)CC2O)C1 (centres unmarked) [Clinodiside A]	0.1	
COc1cc(/C=C/C(=O)O[C@H]2[C@H](O)[C@@H](CO)O[C@@]2(CO)O[C@H]2O[C@H](COC(=O)c3ccc(O)cc3)[C@@H](O)[C@H](O)[C@H]2O)cc(OC)c1OC [Tenuifoliside A]	0.3	

Structure (SMILES)	OC43 Inhibition rate [%]	OC43 Inhibition rate (OC43 Inhibition rate, 24 h) [%]
CC(C)[C@@H]1CC[C@@H](C)C[C@H]1O [Menthol]		-0.2
CC(C)CCC[C@@H](C)[C@H]1CC[C@H]2[C@@H]3CC=C4C[C@@H](OS(=O)(=O)O)CC[C@]4(C)[C@H]3CC[C@]12C [Cholesteryl sulfate (sodium)]	4.6	
O=C(O)c1c[nH]c(=O)[nH]c1=O [2,4-Dihydroxypyrimidine-5-carboxylic Acid]	-0.8	
N[C@@H](Cc1ccc(O)c([N+](=O)[O-])c1)C(=O)O [3-Nitro-L-tyrosine]	-2.3	
COc1ccc(/C=C/c2cc(O)cc(O[C@@H]3O[C@H](CO)[C@@H](O)[C@H](O)[C@H]3O)c2)cc1O [Rhapontin]	-0.2	
C=C[C@H]1[C@H](O[C@@H]2O[C@H](CO)[C@@H](O)[C@H](O)[C@H]2O)OC=C(C(=O)OC)[C@H]1CCOC(=O)c1cc(O)c(O)c(O)c1 [Cornuside]	-1.6	
CCCCCCCCOC(C)=O [Octyl acetate]	2.7	
O=C(O)CO [Glycolic acid]	2.8	
COc1cc2c(cc1OC)C1=Cc3ccc(OC)c(OC)c3CN1CC2 [Dihydropalmatine]	2.2	
CC1(C)[C@@H](O[C@H]2O[C@H](C(=O)O)[C@@H](O)[C@H](O)[C@H]2O[C@@H]2O[C@H](C(=O)O)[C@@H](O)[C@H](O)[C@H]2O)CC[C@]2(C)[C@H]3C(=O)C=C4[C@@H]5C[C@@](C)(C(=O)O)CC[C@]5(C)CC[C@@]4(C)[C@]3(C)CC[C@@H]12 [Ammonium glycyrrhizinate]		0
CC(C)[C@H](C)[C@@H](O)[C@H](O)[C@@H](C)[C@H]1CC[C@H]2[C@@H]3COC(=O)[C@H]4C[C@H](O)[C@H](O)C[C@]4(C)[C@H]3CC[C@]12C [Brassinolide]	-1.2	
COc1ccc(-c2cc(=O)c3c(O)c(OC)c(OC)cc3o2)cc1 [Salvigenin]	0.5	
N[C@@H](Cc1c[nH]cn1)C(=O)O [L-Histidine]		1.8
C[C@H](CC[C@@H](O[C@@H]1O[C@H](CO)[C@@H](O)[C@H](O)[C@H]1O[C@@H]1O[C@H](CO)[C@@H](O)[C@H](O)[C@H]1O)C(C)(C)O)[C@H]1CC[C@@]2(C)[C@@H]3CC=C4[C@@H](CC[C@H](O)C4(C)C)[C@]3(C)[C@H](O)C[C@]12C [Mogroside II-A]	0.7	
C[C@H](CC[C@@H](O)C(C)(C)O)[C@H]1CC[C@@]2(C)[C@@H]3CC=C4[C@@H](CC[C@H](O)C4(C)C)[C@]3(C)[C@H](O)C[C@]12C [Mogrol]	0.1	
C/C=C(/C)C(=O)O[C@H]1C(C)=C[C@]23C(=O)[C@@H](C=C(CO)[C@@H](O)[C@]12O)[C@H]1[C@@H](C[C@H]3C)C1(C)C [Ingenol Mebutate]	1.1	
C[C@@]12C[C@@]3(O)O[C@@H](O1)[C@]1(COC(=O)c4ccc(O)cc4)[C@H]3C[C@@]12O[C@@H]1O[C@H](CO)[C@@H](O)[C@H](O)[C@H]1O [Oxypaeoniflorin]	-0.1	
COc1cc2c(cc1OC)[C@@H](Cc1ccc(O)c(Oc3cc4c(cc3OC)CCN(C)[C@@H]4Cc3ccc(O)cc3)c1)N(C)CC2 [Liensinine (Diperchlorate)]		24.8
CC(C)=CC[C@H](OC(=O)C=C(C)C)C1=CC(=O)c2c(O)ccc(O)c2C1=O [β,β-Dimethylacrylalkannin]	-0.5	
O=C(O)[C@H](O)[C@H](O)[C@@H](O)[C@H](O)[C@H](O)CO [NSC 42196]	3.4	
OC/C=C/c1ccccc1 [Cinnamyl Alcohol]	-0.3	
C/C=C1\C(=O)C[C@H]2[C@@H]3CCC4=CC(=O)CC[C@]4(C)[C@H]3CC[C@]12C [(Z)-Guggulsterone]		0.3
COC(=O)C1=CO[C@@H](O[C@@H]2O[C@H](CO)[C@@H](O)[C@H](O)[C@H]2O)[C@H]2[C@@H]1C=C[C@@]2(O)CO [Gardenoside]	4.5	
C[C@H]1CC[C@@]2(OC1)O[C@H]1C[C@H]3[C@@H]4CC[C@@H]5C[C@@H](O)CC[C@]5(C)[C@H]4CC[C@]3(C)[C@H]1[C@@H]2C [Sarsasapogenin]	-0.2	
Cc1cncc(C)n1 [2,6-Dimethylpyrazine]	2.1	
CC(=O)O[C@H]1[C@H](O[C@H]2CC[C@]34C[C@]35CC[C@]3(C)[C@@H]([C@@]6(C)CC[C@@H](C(C)(C)O)O6)[C@@H](O)C[C@@]3(C)[C@@H]5C[C@H](O[C@@H]3O[C@H](CO)[C@@H](O)[C@H](O)[C@H]3O)[C@H]4C2(C)C)OC[C@@H](OC(C)=O)[C@@H]1O [Isoastragaloside I]	4.3	

Full records, looked up by structure:
`CC(C)[C@@H]1CC[C@@H](C)C[C@H]1O` [Menthol] as listed: OC43 Inhibition rate (OC43 Inhibition rate, 24 h) [%]: -0.2
`C[C@@]12C[C@@]3(O)O[C@@H](O1)[C@]1(COC(=O)c4ccc(O)cc4)[C@H]3C[C@@]12O[C@@H]1O[C@H](CO)[C@@H](O)[C@H](O)[C@H]1O` [Oxypaeoniflorin] as listed: OC43 Inhibition rate [%]: -0.1
`COc1ccc(-c2cc(=O)c3c(O)c(OC)c(OC)cc3o2)cc1` [Salvigenin] as listed: OC43 Inhibition rate [%]: 0.5

Reference: article PMC12431657, “Discovery and mechanistic insights of dibenzoylmethane as a broad spectrum inhibitor of coronavirus” (PLOS Pathogens, 2025)
